Measured data: PubChem BioAssay AID504793 (Drosophila RNAi Screening Center, 2011)
Test: 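Genes required for cells to halt at G2/M after double-strand DNA breaks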 (primary screen). Cell system: Drosophila S2R+ cells. Reagent: long dsRNA against Drosophila genes, about 0.25 µg dsRNA per well. Timing: 4 days of dsRNA, then 4 hours of drug before read-out. Conditions: doxorubicin 0.5 µM for 4 hours to cause double-strand breaks, in cells also given a low, harmless dose of dsRNA against nbs to sensitise the assay. Read-out: 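Per-well count of mitotic cells stained for phospho-histone H3 after doxorubicin exposure, used as mitotic index; counts are raw and not normalised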. Direction: mitotic cells: higher = more cells in mitosis, weaker G2 arrest. Call rule: 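a call needs confirmation in secondary tests, with other dsRNAs and a check of mitotic timing without damage, not just a high primary count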. Meaning of the calls: active = confirmed in follow-up tests; inactive = not confirmed.
The screen tested about 23,000 reagents; below is a random part of those with a known target gene and a result. Of all reagents, 62 (0.27%) were called active. 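Calls come from follow-up tests whose scores are not deposited, so confirmed genes may have low counts here; counts are not normalised per plate.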 Raw values vary from plate to plate and are shown uncorrected. Entries without a mark were called inactive. Reagents against one gene are numbered here. Names joined by + are all predicted targets of the reagent.

Marc (Mitochondrial amidoxime reducing component) — mitotic cells, replicate 1: 14
sktl (skittles) — mitotic cells, replicate 1: 8
Dhc16F (Dynein heavy chain at 16F) — mitotic cells, replicate 1: 11
Slc45-1 — mitotic cells, replicate 1: 7
GM130 (Golgi matrix protein 130 kD) — mitotic cells, replicate 1: 8
CG11360 — mitotic cells, replicate 1: 13
Or85d (Odorant receptor 85d) #1 — mitotic cells, replicate 1: 7
Or85d (Odorant receptor 85d) #2 — mitotic cells, replicate 1: 7
CG18539 — mitotic cells, replicate 1: 7
CG33462 — mitotic cells, replicate 1: 16
MsR2 + CG13802 (retired record) #1 — mitotic cells, replicate 1: 5
MsR2 + CG13802 (retired record) #2 — mitotic cells, replicate 1: 10
MsR2 + CG13802 (retired record) #3 — mitotic cells, replicate 1: 12
MsR2 + CG13802 (retired record) #4 — mitotic cells, replicate 1: 6
CG32085 #1 — mitotic cells, replicate 1: 4
CG32085 #2 — mitotic cells, replicate 1: 5
CG32085 #3 — mitotic cells, replicate 1: 5
Dhc1 (Dynein heavy chain 1) — mitotic cells, replicate 1: 7
CG31195 — mitotic cells, replicate 1: 14
CG7142 #1 — mitotic cells, replicate 1: 11
CG7142 #2 — mitotic cells, replicate 1: 7
dib (disembodied) #1 — mitotic cells, replicate 1: 11
dib (disembodied) #2 — mitotic cells, replicate 1: 6
Osi17 (Osiris 17) — mitotic cells, replicate 1: 5
CG12662 — mitotic cells, replicate 1: 15
CG15169 — mitotic cells, replicate 1: 3
trol (terribly reduced optic lobes) #1 — mitotic cells, replicate 1: 15
trol (terribly reduced optic lobes) #2 — mitotic cells, replicate 1: 14
trol (terribly reduced optic lobes) #3 — mitotic cells, replicate 1: 5
CG32987 #1 — mitotic cells, replicate 1: 9
CG32987 #2 — mitotic cells, replicate 1: 5
rig (rigor mortis) #1 — mitotic cells, replicate 1: 4
rig (rigor mortis) #2 — mitotic cells, replicate 1: 7
CG30039 #1 — mitotic cells, replicate 1: 9
CG30039 #2 — mitotic cells, replicate 1: 7
